Some of the results follow.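 Rule for the calls: active = dose-dependent thermal stabilisation significant by F-test of dose-response against flat model at 10% FDR; inactive = not significant.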
These targets were tested with Nc1nc2c(ncn2[C@@H]2O[C@H](COP(=O)(O)OP(=O)(O)OP(=O)(O)O)[C@@H](O)[C@H]2O)c(=O)[nH]1 (assay: dose-dependent thermal stabilisation call (2D-TPP, DLPTP, 10% FDR) (binary (1 = stabilised)); higher = stabilised by the compound). Conditions: system: Jurkat gel-filtered lysate; concentration range 1-500 µM.
Procedure: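 2D thermal proteome profiling in gel-filtered Jurkat E6.1 lysate (2 mg/ml) treated with NaGTP (0, 1, 10, 100, 500 uM) for 10 min at room temperature, then heated 3 min at one of 12 temperatures (42-63.9 C). Soluble protein was quantified by TMT10 MS. The value is the DLPTP call of the paper: dose-dependent thermal stabilisation over all temperatures at 10% FDR (F-test of a dose-response against a flat model); one experiment, one call per tested protein.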

Protein sequences, listed by entry. Tags and fused reporters are not part of them. Lines headed by an entry give the natural chain unless they say otherwise; changes in a name come on top.
UniProt O75554: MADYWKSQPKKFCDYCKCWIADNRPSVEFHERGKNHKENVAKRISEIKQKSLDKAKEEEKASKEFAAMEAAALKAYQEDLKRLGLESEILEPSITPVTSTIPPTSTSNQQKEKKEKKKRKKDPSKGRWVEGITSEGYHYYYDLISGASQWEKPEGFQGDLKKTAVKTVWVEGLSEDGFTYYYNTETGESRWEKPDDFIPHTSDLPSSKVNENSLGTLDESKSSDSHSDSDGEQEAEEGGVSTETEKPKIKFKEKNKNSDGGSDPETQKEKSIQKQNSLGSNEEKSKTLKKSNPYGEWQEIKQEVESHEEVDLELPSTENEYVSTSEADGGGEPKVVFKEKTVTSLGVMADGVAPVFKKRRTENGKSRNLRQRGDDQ
UniProt P08670, whole entry: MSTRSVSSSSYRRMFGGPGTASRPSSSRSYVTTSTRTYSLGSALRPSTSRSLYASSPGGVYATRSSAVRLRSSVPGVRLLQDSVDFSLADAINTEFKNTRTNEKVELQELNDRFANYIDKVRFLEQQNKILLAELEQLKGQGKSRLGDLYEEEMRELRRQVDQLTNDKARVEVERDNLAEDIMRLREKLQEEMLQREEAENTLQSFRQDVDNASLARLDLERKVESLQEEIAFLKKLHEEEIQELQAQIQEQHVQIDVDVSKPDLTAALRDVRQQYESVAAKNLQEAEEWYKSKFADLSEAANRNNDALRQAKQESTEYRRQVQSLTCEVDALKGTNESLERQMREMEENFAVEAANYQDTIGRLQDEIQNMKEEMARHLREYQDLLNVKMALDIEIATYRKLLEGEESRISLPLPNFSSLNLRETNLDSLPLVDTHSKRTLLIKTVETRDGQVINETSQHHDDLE
UniProt Q99986: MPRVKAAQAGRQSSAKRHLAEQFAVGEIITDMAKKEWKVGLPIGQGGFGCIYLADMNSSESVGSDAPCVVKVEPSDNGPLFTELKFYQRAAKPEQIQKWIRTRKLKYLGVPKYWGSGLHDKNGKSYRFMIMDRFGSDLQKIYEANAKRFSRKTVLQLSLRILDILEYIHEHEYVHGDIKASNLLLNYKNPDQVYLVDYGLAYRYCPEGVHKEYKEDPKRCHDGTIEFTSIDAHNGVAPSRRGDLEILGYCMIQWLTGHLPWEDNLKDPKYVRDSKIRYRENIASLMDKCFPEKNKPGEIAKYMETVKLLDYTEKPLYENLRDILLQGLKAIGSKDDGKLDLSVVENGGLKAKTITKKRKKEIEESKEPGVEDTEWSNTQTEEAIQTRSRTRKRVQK
UniProt P07919: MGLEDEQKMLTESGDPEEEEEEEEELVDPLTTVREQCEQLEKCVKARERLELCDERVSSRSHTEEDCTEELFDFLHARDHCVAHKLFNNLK
UniProt O76080: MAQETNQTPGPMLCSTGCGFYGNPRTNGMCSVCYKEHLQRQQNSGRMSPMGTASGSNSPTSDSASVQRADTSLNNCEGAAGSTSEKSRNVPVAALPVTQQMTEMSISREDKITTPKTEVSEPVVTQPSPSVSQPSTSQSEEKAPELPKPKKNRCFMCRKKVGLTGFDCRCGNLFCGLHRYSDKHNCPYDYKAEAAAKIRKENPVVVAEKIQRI
UniProt Q7Z739: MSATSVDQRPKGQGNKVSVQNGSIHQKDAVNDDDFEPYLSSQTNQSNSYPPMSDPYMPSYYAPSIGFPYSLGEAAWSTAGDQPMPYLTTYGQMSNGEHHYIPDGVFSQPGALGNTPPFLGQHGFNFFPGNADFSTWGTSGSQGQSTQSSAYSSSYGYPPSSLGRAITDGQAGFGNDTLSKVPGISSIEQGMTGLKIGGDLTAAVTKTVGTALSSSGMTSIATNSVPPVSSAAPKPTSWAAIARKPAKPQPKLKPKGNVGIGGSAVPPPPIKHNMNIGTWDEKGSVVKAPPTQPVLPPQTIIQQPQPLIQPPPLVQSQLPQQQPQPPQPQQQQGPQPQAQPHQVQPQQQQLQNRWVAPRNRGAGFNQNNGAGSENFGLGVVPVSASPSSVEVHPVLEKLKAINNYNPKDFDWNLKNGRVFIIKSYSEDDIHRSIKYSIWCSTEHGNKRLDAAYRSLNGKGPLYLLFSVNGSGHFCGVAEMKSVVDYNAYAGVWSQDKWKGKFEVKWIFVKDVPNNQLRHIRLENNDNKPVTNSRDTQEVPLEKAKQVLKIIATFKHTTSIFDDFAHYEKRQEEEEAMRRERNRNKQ
UniProt Q9H3U1: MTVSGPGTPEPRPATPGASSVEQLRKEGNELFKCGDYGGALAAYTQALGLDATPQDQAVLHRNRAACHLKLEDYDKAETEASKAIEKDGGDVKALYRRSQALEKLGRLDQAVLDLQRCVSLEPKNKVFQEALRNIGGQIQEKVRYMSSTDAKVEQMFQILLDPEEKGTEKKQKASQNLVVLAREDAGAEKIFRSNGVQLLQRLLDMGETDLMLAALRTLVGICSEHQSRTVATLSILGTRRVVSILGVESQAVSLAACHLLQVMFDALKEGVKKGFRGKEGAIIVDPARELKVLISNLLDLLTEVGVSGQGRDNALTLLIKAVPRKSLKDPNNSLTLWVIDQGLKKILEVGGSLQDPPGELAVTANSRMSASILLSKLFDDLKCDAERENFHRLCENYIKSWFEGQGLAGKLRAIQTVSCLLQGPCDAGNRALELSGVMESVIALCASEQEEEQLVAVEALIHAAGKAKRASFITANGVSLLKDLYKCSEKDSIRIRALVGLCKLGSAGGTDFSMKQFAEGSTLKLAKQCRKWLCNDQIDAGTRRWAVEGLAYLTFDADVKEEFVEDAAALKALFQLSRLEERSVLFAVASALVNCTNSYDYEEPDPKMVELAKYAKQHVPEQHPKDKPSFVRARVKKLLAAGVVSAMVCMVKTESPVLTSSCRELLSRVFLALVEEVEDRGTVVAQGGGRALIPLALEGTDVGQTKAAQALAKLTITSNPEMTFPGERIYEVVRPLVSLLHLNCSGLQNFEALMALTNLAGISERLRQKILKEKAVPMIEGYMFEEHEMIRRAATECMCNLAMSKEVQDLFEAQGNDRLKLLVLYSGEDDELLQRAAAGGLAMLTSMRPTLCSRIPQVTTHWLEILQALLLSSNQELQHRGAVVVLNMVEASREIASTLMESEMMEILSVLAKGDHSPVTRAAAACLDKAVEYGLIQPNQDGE
UniProt Q86UV5: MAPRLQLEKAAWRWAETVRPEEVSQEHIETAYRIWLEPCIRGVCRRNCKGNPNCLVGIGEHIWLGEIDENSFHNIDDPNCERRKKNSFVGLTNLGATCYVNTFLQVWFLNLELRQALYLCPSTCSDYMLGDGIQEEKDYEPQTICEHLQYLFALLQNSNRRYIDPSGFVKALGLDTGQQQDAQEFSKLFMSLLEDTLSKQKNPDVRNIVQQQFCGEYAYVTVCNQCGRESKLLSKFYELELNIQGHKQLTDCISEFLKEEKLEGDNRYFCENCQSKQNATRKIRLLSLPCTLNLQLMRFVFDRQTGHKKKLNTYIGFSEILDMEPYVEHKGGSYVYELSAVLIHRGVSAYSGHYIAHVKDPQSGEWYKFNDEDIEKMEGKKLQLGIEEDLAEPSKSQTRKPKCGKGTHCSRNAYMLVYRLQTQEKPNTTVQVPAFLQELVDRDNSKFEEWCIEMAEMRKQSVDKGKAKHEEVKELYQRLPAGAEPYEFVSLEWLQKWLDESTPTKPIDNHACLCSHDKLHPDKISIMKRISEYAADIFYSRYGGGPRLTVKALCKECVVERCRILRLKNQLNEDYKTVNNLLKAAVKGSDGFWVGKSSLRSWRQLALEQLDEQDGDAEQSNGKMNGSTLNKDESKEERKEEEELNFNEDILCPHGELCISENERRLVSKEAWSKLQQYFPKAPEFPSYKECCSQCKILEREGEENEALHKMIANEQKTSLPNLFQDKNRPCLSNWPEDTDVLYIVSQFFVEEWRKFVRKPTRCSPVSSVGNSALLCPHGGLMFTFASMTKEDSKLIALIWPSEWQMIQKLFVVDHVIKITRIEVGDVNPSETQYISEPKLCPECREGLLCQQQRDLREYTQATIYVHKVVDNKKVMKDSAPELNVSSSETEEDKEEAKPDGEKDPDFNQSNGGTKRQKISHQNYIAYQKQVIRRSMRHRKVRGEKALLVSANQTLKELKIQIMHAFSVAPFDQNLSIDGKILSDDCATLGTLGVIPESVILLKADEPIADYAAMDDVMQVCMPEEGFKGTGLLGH
UniProt Q96S82: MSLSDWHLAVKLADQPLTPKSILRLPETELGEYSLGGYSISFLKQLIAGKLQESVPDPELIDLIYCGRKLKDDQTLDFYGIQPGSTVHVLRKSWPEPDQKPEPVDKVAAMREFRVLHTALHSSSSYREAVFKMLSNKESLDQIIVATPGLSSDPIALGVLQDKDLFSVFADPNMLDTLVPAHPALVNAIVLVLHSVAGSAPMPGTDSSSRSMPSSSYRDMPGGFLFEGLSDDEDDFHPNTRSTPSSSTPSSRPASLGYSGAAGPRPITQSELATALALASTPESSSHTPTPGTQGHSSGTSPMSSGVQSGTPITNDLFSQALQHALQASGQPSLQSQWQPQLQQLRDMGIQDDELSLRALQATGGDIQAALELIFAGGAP
UniProt Q8N1B4: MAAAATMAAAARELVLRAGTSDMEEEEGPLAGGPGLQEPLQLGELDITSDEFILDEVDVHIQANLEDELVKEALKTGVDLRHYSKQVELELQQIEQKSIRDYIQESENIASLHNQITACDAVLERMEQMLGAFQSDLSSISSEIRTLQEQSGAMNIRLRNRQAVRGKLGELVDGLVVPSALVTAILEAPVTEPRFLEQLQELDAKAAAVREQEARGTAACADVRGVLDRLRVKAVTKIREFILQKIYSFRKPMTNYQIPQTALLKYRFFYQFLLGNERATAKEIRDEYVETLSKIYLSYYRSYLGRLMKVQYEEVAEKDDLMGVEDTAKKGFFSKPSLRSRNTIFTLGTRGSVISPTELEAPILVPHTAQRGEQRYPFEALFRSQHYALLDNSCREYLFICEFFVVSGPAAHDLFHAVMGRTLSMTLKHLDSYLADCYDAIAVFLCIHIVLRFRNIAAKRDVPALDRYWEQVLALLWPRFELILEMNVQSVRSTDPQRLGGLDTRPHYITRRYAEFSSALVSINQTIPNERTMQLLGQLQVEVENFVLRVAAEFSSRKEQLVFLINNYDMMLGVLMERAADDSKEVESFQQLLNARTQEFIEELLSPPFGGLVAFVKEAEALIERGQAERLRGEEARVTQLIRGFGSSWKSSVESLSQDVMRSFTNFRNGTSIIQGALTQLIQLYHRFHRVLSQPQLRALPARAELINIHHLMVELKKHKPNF
UniProt P61086: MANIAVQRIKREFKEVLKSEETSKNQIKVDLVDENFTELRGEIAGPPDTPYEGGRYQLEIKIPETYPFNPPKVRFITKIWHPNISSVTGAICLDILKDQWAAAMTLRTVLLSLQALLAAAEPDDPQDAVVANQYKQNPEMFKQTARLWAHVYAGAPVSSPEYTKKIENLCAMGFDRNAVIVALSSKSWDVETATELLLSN
UniProt Q9UK41: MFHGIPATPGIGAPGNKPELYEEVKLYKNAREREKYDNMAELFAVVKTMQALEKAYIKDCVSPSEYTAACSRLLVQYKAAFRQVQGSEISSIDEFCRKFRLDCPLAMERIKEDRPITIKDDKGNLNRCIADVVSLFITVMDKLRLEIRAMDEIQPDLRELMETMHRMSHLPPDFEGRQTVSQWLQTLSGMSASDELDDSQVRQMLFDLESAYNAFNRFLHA
UniProt P63146, whole entry: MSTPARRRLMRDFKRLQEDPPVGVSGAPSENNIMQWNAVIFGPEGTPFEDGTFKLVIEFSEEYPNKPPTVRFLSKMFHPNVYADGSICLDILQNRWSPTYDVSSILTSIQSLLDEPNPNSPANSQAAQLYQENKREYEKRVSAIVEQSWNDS
UniProt Q08AM6: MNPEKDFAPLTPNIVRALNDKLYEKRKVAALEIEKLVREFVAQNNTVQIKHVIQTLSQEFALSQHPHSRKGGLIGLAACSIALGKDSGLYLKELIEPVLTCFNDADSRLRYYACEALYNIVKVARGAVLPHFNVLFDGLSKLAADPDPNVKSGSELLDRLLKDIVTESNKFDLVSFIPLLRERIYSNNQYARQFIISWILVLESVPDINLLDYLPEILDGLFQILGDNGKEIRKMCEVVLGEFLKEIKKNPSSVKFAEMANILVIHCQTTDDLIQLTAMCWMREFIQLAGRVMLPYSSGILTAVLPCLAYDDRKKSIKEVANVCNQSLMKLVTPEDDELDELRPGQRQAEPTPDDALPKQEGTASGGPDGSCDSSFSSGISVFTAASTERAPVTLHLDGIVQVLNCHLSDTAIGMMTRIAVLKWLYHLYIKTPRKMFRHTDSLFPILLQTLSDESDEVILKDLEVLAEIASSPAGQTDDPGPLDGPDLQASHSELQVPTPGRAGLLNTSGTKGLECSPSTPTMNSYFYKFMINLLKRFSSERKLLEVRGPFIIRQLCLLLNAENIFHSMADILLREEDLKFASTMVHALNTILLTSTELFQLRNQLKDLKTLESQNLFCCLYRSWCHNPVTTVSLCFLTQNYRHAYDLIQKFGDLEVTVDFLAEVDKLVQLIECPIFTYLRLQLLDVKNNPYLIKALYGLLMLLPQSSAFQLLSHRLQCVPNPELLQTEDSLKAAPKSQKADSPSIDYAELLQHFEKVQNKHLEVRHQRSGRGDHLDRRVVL

Row | Target | dose-dependent thermal stabilisation call
1 | WBP4 (UniProt O75554) | inactive: 0
2 | UBE2J1 (UniProt Q9Y385) | inactive: 0
3 | VIM (UniProt P08670) | inactive: 0
4 | ZBTB44 (UniProt Q8NCP5) | inactive: 0
5 | VRK1 (UniProt Q99986) | inactive: 0
6 | UQCRH (UniProt P07919) | inactive: 0
7 | XRN1 (UniProt Q8IZH2) | active: 1
8 | ZFAND5 (UniProt O76080) | inactive: 0
9 | YTHDF3 (UniProt Q7Z739) | inactive: 0
10 | XPO6 (UniProt Q96QU8) | inactive: 0
11 | VAPA (UniProt Q9P0L0) | inactive: 0
12 | ZBTB43 (UniProt O43298) | inactive: 0
13 | UNC45A (UniProt Q9H3U1) | inactive: 0
14 | WDR34 (UniProt Q96EX3) | active: 1
15 | ZCCHC11 (UniProt Q5TAX3) | inactive: 0
16 | VMAC (UniProt Q2NL98) | inactive: 0
17 | UBXN4 (UniProt Q92575) | inactive: 0
18 | USP48 (UniProt Q86UV5) | active: 1
19 | VPS11 (UniProt Q9H270) | inactive: 0
20 | UBL7 (UniProt Q96S82) | inactive: 0

Reprinted at random: two records from the list, in no set order.
Row | Target | dose-dependent thermal stabilisation call
2 | UBE2J1 (UniProt Q9Y385) | inactive: 0
7 | XRN1 (UniProt Q8IZH2) | active: 1

(continued)

Row | Target | dose-dependent thermal stabilisation call
21 | VPS16 (UniProt Q9H269) | inactive: 0
22 | UBE2O (UniProt Q9C0C9) | inactive: 0
23 | WDR73 (UniProt Q6P4I2) | inactive: 0
24 | VPS13B (UniProt Q7Z7G8) | inactive: 0
25 | ZC3HAV1L (UniProt Q96H79) | inactive: 0
26 | VPS52 (UniProt Q8N1B4) | inactive: 0
27 | WDR45 (UniProt Q9Y484) | inactive: 0
28 | UBE2K (UniProt P61086) | active: 1
29 | UBR2 (UniProt Q8IWV8) | inactive: 0
30 | UPF1 (UniProt Q92900) | active: 1
31 | UNC13D (UniProt Q70J99) | inactive: 0
32 | YTHDF1 (UniProt Q9BYJ9) | inactive: 0
33 | USP34 (UniProt Q70CQ2) | inactive: 0
34 | UNC119 (UniProt Q13432) | active: 1
35 | VPS28 (UniProt Q9UK41) | inactive: 0
36 | UPF3B (UniProt Q9BZI7) | inactive: 0
37 | WDR41 (UniProt Q9HAD4) | inactive: 0
38 | VPS13C (UniProt Q709C8) | inactive: 0
39 | UBE2B (UniProt P63146) | inactive: 0
40 | VAC14 (UniProt Q08AM6) | inactive: 0

Source: the supplement of paper PMC7666118
